Source: US9107946B2, “Drug combinations comprising a DGAT inhibitor and a PPAR-agonist” (Janssen Pharmaceutica NV, priority 2008, dated 2015)
Read-outs that look alike come from different tables or passages of the source. For at least one compound, name, drawing or mass did not settle the structure. Some of these results come from one statement about several compounds together.

Legend:
[1] = Test A: food intake, body weight and serum biochemistry, DGAT inhibitor, fenofibrate or both in diet; format: in vivo, DIO C57BL/6 mice; conditions: 12 day trial; for body weight lost during the trial: 0.04% D or 0.05% F in diet, controls gained 0.6 grams
Excerpt: Diet was provided in powder form.
At the end of test A, blood was collected under isoflurane anesthesia for serum biochemistry determinations.

[2] = 0.04% compound 358 of Class D and/or 0.05% fenofibrate in diet

Structure (SMILES)	body weight lost during the trial [1]	21 days body weight change compared to controls (2x2 factorial) ([2]; main effects P<0.05, interaction P>0.05)	daily food intake compared to control mice ([2]; 45 kcal % fat diet, n=8/group)	daily food intake compared to control mice ([1]; 45 kcal % fat diet, 0.04% compound 223 of Class D (D) and/or 0.05% fenofibrate (F) in diet)
COc1ccc(CC(=O)Nc2ccc(N3CCN(C(=O)Nc4c(Cl)cc(CN5CCCC5)cc4Cl)CC3)cc2)cc1 [compound 223 of Class D]	1-2 grams			
CC(C)OC(=O)C(C)(C)Oc1ccc(C(=O)c2ccc(Cl)cc2)cc1 [fenofibrate, reference compound]	1-2 grams	gained less weight than controls	not significantly less than control mice	not significantly less than control mice
